Cell number change and AC50 data for 18 molecules are collected here from PubChem BioAssay AID2685 (National Center for Advancing Translational Sciences (NCATS), 2010).

The assay in a line: qHTS Assay for Lipid Storage Modulators in Drosophila S3 Cells.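 For Cell number change: cells counted by Cell Tracker Red CMTPX staining in the red channel.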 Conditions: BODIPY lipid droplet fluorescence, 18-24 h; for cell number change: measured here: cell count max response, cells fed with added oleic acid. The essentials:
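Laser-scanning cytometry quantifies lipid droplet accumulation (500–530 nm total intensity; droplet/cell object ratio) in oleic acid-fed (400 uM added) Drosophila S3 cells treated with a concentration series. 20 uM Triacsin C defined 100% inhibition.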
In general terms: Quantitative high-throughput screening tests each substance at several concentrations.

Setting [1] is: measured here: lipid fluorescence (Fed channel) AC50, cells fed with added oleic acid.
[2] abbreviates: measured here: cell number channel AC50, cells fed with added oleic acid.

Structures are written as SMILES. The list shows a part of the results. Shown are side measurements of this screen, not its main read-out; they come without a call. Compounds called inactive in the main read-out are mostly missing here. Potencies come from curve fits of mixed quality, noted in brackets.

Turning to `CN(c1ccc(C(=O)O)cc1)S(=O)(=O)c1ccccc1`, the cell number change is 4.82%. The AC50 – broadly, the concentration at which the activity in the assay is half-maximal – under setting [1] was 5.8 µM [falling, full curve].
As to `Cc1ccc(C2c3c(C)nn(-c4ccc([N+](=O)[O-])cc4)c3N=C3C(=O)Nc4ccccc4N32)cc1` (stereo not drawn), the cell number change stood at 22.3%. The AC50 under setting [1] is 0.0058 µM [rising, full curve, poor fit].
Take `Cc1nc2ncnn2c(C)c1CCC(=O)NCc1ccc2c(c1)OCO2`: the cell number change amounted to 0.837%. In addition, the AC50 under setting [2] is 0.116 µM [rising, full curve, poor fit].
Turning to `CCCCn1c(SCC(=O)c2ccc3c(c2)OCCO3)nnc1-c1ccoc1C`, the cell number change worked out at 15%.
As for `CS(=O)(=O)N(CCCC(=O)N1CCCCCC1)c1cccc(Cl)c1`, the cell number change is -23.6%. Also, the half-maximal activity concentration (AC50) under setting [1] was 29.1 µM [falling, single point].
For `CC(C)(C)S(=O)(=O)c1ccc2nc3c(n2c1)CCCC3`, the cell number change was -10.2%. Further, the half-maximal activity concentration (AC50) under setting [1] is 6.51 µM [rising, partial curve, poor fit].
Consider `Cc1cccc(C(C)C)c1NC(=O)C1CCN(S(=O)(=O)c2ccccc2)CC1`, for which the cell number change came to 7.26%.
Turning to `O=C/C(=C\Nc1ccc(Cl)cn1)c1nc2cc(Cl)ccc2o1`, the cell number change was -5.68%. Under setting [1], the AC50 is 0.82 µM [falling, full curve].
In the case of `O=C(COc1ccccc1)NC(=S)N1CCc2ccccc21`, the AC50 under setting [1] is 29.1 µM [rising, single point].
`CNC(=S)N/N=C/c1cn(CCOc2ccc(OC)cc2)c2ccccc12`: the cell number change is 1.75%. Moreover, the AC50 under setting [1] was 0.82 µM [rising, full curve, poor fit].
As for `CC(Sc1nnc(CN2CCCC2)n1Cc1ccccc1)C(=O)Nc1ccc(F)cc1` (stereo not drawn), the cell number change is 12.9%.
As to `CC(C)[C@H](NC(=O)[C@@H]1CSC2c3ccccc3C(=O)N21)C(=O)NC1CCCC1` (stereo partly drawn), the cell number change is -35%. For the same molecule, under setting [2], the half-maximal activity concentration (AC50) is 25.9 µM [falling, single point]. Also, the half-maximal activity concentration (AC50) under setting [1] is 29.1 µM [rising, single point].
Turning to `CCOCCCNC(=O)c1cccc(NC(=O)C2=C(C)OCCS2)c1`, the cell number change was -22.5%. Moreover, the AC50 under setting [1] was 29.1 µM [falling, single point].
For `O=C1C(=O)c2ccccc2C(O)=C1CCCCl`, the cell number change is -22.5%. For the same molecule, the AC50 under setting [1] is 0.00517 µM [falling, full curve, poor fit].
Turning to `CC(C)c1nc(SCC(=O)NC2CCCC2)c2c(=O)n(C)c(=O)n(C)c2n1`, the cell number change is 2.35%. Also, under setting [1], the half-maximal activity concentration (AC50) is 0.103 µM [falling, full curve, poor fit].
Turning to `O=c1[nH]n2c(=O)c3c([nH]c2c1N=Nc1cccc(Cl)c1)CCC3`, the cell number change was determined as 18.6%. For the same molecule, under setting [1], the AC50 was 6.51 µM [rising, single point].
As for `O=C(Cn1ccc2ccccc2c1=O)NCC(=O)N1CCCCC1`, the cell number change worked out at 1.59%. The AC50 under setting [1] was 6.51 µM [rising, single point].
On to `CC(Oc1ccc(Cl)cc1)c1ccnn1S(C)(=O)=O` (stereo not drawn), for which the cell number change was determined as 47.3%. For the same molecule, the AC50 under setting [2] was 29.1 µM [rising, single point].
